The other results are listed elsewhere or left out. The data scatter; read single values as rough.
compound: ClCC(=O)N[C@@H]1CCCc2ccccc12; assay: log2 mean competition ratio of IA-DTB cysteine labelling (DMSO/compound) (log2 ratio); higher = stronger cysteine engagement by compound; details: 50 µM; treatment time: 4 h; cell line lysate: HEK293T
Protocol: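 IA-DTB competitive cysteine chemoproteomics in HEK293T RIPA lysate. Lysates were treated with compound 29 or 30 at 50 or 200 µM for 4 h, then IA-DTB (500 µM, 1 h), trypsin-digested, NeutrAvidin-enriched and analysed by diaPASEF. Competition ratio = intensity DMSO / intensity compound (n=4 treated, n=64 DMSO); binding: mean log2 CR ≥ 1 and p ≤ 0.05 plus QC filters. Target is the cysteine site.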

The chains behind the UniProt entries cited, without tags or fusion partners. Where a name states a change or a piece, a line headed by the entry shows the natural chain unless it says otherwise. Residues count along the entry.
UniProt Q7Z406, 107-126: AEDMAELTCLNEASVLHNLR
UniProt Q13615: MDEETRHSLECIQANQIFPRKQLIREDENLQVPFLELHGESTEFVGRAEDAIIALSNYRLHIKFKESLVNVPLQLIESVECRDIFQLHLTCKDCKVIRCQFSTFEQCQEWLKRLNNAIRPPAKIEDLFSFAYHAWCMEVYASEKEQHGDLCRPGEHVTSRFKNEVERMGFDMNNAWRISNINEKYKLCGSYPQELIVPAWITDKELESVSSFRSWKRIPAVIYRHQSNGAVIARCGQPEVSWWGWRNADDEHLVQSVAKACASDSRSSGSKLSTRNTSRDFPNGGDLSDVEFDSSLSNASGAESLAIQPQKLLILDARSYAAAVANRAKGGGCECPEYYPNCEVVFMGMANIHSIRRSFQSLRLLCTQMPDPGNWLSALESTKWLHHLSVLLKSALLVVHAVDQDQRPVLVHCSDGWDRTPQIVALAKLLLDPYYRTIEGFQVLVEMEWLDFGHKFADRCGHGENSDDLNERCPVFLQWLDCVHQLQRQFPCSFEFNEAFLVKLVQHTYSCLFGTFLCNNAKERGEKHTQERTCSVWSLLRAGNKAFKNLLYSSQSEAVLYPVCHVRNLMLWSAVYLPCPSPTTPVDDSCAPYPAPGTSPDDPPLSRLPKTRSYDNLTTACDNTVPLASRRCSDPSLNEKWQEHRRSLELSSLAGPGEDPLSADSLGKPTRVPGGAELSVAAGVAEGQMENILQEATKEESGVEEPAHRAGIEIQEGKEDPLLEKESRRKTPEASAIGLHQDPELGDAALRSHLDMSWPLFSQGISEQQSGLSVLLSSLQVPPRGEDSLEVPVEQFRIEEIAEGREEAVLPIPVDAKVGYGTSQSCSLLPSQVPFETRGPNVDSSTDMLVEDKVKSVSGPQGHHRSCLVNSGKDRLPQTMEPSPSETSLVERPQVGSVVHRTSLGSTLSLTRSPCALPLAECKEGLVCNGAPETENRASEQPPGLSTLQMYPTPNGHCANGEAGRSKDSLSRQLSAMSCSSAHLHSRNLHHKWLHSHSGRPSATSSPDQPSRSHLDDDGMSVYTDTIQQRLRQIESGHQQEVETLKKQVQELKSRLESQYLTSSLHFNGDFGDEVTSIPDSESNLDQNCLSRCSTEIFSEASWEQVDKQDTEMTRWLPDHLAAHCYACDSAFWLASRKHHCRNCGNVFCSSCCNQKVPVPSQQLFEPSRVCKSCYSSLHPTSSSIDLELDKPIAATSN
UniProt Q9UM54: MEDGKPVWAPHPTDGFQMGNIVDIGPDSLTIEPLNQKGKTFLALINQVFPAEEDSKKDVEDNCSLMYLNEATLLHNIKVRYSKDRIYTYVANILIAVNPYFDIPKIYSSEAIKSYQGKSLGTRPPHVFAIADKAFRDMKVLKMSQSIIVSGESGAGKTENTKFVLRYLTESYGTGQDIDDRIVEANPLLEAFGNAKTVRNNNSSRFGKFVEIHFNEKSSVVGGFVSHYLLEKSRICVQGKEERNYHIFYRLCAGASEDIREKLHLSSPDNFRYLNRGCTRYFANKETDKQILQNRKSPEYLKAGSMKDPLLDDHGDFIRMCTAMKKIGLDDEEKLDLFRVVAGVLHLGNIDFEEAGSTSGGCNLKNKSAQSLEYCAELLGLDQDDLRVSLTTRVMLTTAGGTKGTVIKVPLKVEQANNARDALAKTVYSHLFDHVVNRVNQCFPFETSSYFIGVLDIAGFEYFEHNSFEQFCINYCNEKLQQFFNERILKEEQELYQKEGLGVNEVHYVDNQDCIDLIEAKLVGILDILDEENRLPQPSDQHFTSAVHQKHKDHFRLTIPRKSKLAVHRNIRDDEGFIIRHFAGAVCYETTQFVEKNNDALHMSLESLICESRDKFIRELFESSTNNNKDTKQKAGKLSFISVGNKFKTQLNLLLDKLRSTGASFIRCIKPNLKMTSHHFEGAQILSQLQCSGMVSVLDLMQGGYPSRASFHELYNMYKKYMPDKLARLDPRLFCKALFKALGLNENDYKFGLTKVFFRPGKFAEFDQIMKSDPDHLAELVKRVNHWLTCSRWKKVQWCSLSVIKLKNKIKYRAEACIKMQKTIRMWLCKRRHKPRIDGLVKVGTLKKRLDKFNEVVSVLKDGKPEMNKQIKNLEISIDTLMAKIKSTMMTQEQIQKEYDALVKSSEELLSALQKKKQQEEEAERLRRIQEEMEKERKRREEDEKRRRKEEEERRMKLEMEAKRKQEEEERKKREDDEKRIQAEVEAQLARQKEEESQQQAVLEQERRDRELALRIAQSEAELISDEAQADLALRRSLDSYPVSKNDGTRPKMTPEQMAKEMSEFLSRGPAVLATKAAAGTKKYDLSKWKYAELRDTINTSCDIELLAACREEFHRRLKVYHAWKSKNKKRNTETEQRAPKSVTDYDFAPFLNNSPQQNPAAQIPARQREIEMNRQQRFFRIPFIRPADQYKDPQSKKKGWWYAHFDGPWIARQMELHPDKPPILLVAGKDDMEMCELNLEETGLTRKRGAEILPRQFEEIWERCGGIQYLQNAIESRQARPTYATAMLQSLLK
UniProt Q969V6, 310-330: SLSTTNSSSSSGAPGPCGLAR
UniProt Q5VVJ2: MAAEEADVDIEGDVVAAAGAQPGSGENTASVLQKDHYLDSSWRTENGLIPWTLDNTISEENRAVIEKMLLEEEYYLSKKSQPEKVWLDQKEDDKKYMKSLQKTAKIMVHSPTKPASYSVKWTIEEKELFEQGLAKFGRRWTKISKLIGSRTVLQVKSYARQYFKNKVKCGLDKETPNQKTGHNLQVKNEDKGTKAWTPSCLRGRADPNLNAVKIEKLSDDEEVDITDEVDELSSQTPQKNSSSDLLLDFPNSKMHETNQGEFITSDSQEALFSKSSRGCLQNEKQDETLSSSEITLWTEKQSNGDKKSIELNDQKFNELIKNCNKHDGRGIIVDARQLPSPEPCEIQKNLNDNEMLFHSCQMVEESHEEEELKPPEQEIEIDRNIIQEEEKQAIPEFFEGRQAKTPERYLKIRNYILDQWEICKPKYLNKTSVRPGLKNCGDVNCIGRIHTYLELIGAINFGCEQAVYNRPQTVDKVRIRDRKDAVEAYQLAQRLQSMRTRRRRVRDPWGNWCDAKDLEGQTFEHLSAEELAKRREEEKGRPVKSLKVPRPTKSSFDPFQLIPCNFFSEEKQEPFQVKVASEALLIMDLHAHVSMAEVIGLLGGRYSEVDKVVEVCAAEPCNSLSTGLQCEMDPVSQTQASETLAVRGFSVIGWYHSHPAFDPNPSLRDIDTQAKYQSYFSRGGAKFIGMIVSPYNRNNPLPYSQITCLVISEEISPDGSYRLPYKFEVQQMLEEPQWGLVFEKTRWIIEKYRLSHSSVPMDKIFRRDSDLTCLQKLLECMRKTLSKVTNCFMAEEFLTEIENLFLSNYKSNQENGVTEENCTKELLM
UniProt Q13496: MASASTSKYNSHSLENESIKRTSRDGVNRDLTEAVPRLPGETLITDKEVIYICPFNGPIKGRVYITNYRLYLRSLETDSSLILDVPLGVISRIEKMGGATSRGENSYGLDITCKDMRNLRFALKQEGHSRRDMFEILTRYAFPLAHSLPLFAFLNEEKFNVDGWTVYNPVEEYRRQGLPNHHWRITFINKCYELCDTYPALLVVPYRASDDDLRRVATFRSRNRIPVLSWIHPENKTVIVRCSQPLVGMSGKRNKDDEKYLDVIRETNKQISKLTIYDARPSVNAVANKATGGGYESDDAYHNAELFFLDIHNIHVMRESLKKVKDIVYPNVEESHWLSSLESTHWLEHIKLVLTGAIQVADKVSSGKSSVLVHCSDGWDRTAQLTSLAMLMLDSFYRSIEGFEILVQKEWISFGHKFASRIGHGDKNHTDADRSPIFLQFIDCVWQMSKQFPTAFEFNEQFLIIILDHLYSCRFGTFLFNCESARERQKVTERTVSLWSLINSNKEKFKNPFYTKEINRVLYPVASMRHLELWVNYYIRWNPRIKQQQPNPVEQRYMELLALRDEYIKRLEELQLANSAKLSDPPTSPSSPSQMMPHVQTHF
UniProt Q99707: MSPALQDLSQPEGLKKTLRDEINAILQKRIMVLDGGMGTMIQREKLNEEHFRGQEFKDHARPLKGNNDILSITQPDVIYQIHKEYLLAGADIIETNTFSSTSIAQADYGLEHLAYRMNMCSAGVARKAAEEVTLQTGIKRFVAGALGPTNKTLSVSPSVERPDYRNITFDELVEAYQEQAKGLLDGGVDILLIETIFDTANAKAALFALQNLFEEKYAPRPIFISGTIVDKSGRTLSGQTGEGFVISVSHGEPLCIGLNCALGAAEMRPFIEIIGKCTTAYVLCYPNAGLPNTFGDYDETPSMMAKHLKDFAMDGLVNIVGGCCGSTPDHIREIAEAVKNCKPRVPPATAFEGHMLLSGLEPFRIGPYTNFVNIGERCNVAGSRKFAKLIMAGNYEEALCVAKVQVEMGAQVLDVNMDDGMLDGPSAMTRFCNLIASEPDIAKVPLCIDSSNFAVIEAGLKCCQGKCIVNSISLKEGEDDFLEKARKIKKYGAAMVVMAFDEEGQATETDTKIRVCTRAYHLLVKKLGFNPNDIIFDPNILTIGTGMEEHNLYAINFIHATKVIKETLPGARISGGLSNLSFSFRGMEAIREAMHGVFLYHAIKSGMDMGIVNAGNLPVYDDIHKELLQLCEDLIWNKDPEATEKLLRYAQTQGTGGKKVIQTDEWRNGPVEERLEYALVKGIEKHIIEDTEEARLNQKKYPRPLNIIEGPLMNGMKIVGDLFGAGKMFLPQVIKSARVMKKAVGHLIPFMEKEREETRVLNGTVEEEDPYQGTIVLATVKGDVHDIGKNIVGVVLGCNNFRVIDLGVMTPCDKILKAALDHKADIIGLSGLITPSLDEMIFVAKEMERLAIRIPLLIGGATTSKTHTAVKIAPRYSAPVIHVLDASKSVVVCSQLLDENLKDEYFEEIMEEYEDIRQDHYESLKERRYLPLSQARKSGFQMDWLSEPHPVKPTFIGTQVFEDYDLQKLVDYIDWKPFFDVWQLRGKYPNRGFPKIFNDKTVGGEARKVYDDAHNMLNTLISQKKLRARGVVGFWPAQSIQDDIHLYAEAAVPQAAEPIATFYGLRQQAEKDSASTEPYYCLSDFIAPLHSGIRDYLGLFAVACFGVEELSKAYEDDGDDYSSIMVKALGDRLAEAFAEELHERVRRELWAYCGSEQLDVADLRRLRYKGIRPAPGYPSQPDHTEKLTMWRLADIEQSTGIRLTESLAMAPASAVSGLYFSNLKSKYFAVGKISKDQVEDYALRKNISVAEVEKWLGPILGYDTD
UniProt Q9H115: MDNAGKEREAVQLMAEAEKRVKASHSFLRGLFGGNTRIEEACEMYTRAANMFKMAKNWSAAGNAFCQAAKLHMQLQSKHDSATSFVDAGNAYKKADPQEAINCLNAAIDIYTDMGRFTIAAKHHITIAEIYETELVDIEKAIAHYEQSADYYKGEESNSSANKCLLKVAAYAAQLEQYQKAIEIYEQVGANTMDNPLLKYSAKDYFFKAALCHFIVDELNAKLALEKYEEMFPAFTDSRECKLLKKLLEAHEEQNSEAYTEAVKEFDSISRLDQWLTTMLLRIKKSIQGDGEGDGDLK
UniProt Q69YI7: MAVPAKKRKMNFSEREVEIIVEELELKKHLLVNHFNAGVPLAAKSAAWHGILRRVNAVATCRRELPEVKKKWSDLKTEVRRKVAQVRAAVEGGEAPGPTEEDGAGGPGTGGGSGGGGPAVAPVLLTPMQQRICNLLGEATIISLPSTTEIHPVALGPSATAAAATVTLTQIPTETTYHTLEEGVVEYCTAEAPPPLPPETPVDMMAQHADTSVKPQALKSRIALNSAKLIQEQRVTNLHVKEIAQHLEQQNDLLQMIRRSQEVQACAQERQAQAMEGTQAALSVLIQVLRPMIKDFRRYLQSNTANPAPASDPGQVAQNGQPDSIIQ
UniProt Q96I59: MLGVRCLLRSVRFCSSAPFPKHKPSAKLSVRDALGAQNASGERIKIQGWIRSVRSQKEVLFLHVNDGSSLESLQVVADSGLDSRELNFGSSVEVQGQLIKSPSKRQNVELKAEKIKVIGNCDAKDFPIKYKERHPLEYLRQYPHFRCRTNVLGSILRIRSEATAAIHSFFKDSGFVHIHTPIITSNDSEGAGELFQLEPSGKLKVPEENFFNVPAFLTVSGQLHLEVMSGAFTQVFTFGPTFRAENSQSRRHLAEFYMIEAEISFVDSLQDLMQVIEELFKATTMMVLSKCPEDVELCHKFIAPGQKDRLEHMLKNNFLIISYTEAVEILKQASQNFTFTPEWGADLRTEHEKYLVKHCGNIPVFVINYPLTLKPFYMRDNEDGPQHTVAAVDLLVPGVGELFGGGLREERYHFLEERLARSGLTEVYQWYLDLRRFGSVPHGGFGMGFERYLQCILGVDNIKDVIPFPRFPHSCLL

Target | log2 mean competition ratio
MYO1B C1123 (UniProt O43795) | 0.0367
MYH14 C115 (UniProt Q7Z406) | 0.0505
MTMR3 C621 (UniProt Q13615) | -0.0934
NAA40 C26 (UniProt Q86UY6) | 0.00881
MRPL19 C248 (UniProt P49406) | -0.114
MYO9A C1541 (UniProt B2RTY4) | 0.0527
NAA15 C309 | -0.0219
MYO6 C587 (UniProt Q9UM54) | -0.17
NARS1 C438 | 0.909
MRTFA C326 (UniProt Q969V6) | 0.296
MTMR4 C698 (UniProt Q9NYA4) | -0.209
MRPL58 C150 (UniProt Q14197) | -0.373
MYSM1 C773 (UniProt Q5VVJ2) | -0.162
MTM1 C375 (UniProt Q13496) | -0.3
MTR C378 (UniProt Q99707) | 0.0456
MRPS5 C324 (UniProt P82675) | 0.351
NAPB C42 (UniProt Q9H115) | 0.12
NAIF1 C61 (UniProt Q69YI7) | 0.0844
MTARC1 C273 | -0.295
NARS2 C121 (UniProt Q96I59) | -0.158

same assay, conditions: 200 µM; treatment time: 4 h; cell line lysate: HEK293T

Target | log2 mean competition ratio
MYO1B C1123 (UniProt O43795) | 0.0575
MYH14 C115 (UniProt Q7Z406) | -0.321
MTMR3 C621 (UniProt Q13615) | 0.0298
NAA40 C26 (UniProt Q86UY6) | 0.0572
MRPL19 C248 (UniProt P49406) | -0.105
MYO9A C1541 (UniProt B2RTY4) | -0.00547
NAA15 C309 | -0.189
MYO6 C587 (UniProt Q9UM54) | -0.197
NARS1 C438 | 0.336
MRTFA C326 (UniProt Q969V6) | 0.0637
MTMR4 C698 (UniProt Q9NYA4) | -0.253
MRPL58 C150 (UniProt Q14197) | -0.309
MYSM1 C773 (UniProt Q5VVJ2) | 0.471
MTM1 C375 (UniProt Q13496) | -0.444
MTR C378 (UniProt Q99707) | 0.0619
MRPS5 C324 (UniProt P82675) | 0.171
NAPB C42 (UniProt Q9H115) | 0.239
NAIF1 C61 (UniProt Q69YI7) | 0.264
MTARC1 C273 | -0.121
NARS2 C121 (UniProt Q96I59) | 0.00776
